From PubChem BioAssay record AID2061308 (NCATS, 2025).

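Inhibition of human mitochondrial aldehyde dehydrogenase (ALDH2) enzyme activity, measured across a dose series in 1536-well plates; the read time is not stated here. Each molecule was tested over a concentration series that mostly reaches 56 µM. The value is a potency: the concentration giving half of the fitted maximal inhibition, so lower values mean stronger inhibitors. Calls follow the fitted curve shape; these molecules are inconclusive because they showed weak, partial, poorly fitted or top-dose-only inhibition.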

Values are in µM. Every entry below has the call inconclusive. These entries are mostly ones the record files as inconclusive; other results of the assay are not listed here. Potencies fitted to partial, single-point or poorly fitting curves are rough. Some entries filed as inconclusive have a full curve. An entry listed twice with the same setting is a separate test.

| Compound | Potency (µM) | curve as filed |
|---|---|---|
| `Oc1ccc(CNc2ccccc2F)c2cccnc12` | 14.13 | inhibitor, partial curve, poor fit |
| `Cc1cc(F)ccc1[C@H]1C[C@@H](N2CCN3C(=O)CC[C@H]3C2)CCN1C(=O)N(C)[C@H](C)c1cc(C(F)(F)F)cc(C(F)(F)F)c1` | 31.62 | inhibitor, single point |
| `COc1ccc(/C=C/C(=O)Nc2ccccc2C(=O)O)cc1OC` | 11.22 | inhibitor, partial curve, poor fit |
| `COc1cc(O)c2c(c1)/C=C/C[C@H](O)[C@H](O)C(=O)/C=C\C[C@H](C)OC2=O` | 28.18 | inhibitor, partial curve, poor fit |
| `CCCN1CCC=C(c2cc(-c3ccc(C)cc3)no2)C1` | 39.81 | inhibitor, single point |
| `COc1cc(C(N)=O)nc(-c2ccccn2)c1O` | 15.85 | inhibitor, partial curve, poor fit |
| `O=S(=O)(Nc1ccc(-c2ccccc2)cc1)c1ccc(NCc2cccc(Cl)c2O)cc1` | 3.548 | inhibitor, full curve, poor fit |
| `CCOC(=O)Nc1ccc(NCc2ccc(F)cc2)nc1N` | 2.512 | inhibitor, full curve |
| `Cc1coc2c1C(=O)C(=O)c1c-2ccc2c(C)cccc12` | 14.13 | inhibitor, partial curve |
| `Cc1cc(OCc2nc(-c3ccccc3Cl)cs2)ccc1OCC(=O)O` | 28.18 | inhibitor, partial curve, poor fit |
| `Cc1ccc(NS(=O)(=O)c2cc3c(cc2-c2ccccc2)NC(=O)CO3)cc1C` | 3.981 | inhibitor, full curve, poor fit |
| `COc1cccc(CNc2ccc(S(=O)(=O)Nc3nc(C)c(C)s3)cc2)c1O` | 3.548 | inhibitor, partial curve |
| `CC(C)C[C@H](NC(=O)CNC(=O)OCc1ccccc1)C(=O)N[C@@H](Cc1ccccc1)C(=O)CCl` | 39.81 | inhibitor, single point |
| `CC[C@H](CO)Nc1nc(Nc2cccc(-c3ccccn3)c2)c2ncn(C(C)C)c2n1` | 39.81 | inhibitor, partial curve, poor fit |
| `CN(C)[C@@H]1C(=O)C(C(N)=O)=C(O)[C@@]2(O)C(=O)C3=C(O)c4c(O)ccc(Cl)c4[C@@](C)(O)C3C[C@@H]12` (stereo partly shown) | 25.12 | inhibitor, partial curve, poor fit |
| `CC(C)c1ccc(-n2ncc3c(=O)n(CC(=O)Nc4cc(F)ccc4Cl)cnc32)cc1` | 7.08 | inhibitor, partial curve, poor fit |
| `O=C(NNc1ccccc1)c1ccncc1` | 28.18 | inhibitor, single point |
| `COCCN(C(=O)c1cc(OC)c(OC)c(OC)c1)c1nc(-c2ccccc2)cs1` | 35.48 | inhibitor, single point |
| `N[C@@H](CCNCc1ccc(Cl)cc1)C(=O)N1CCCCC1` | 25.12 | inhibitor, partial curve, poor fit |
| `C/C=C/C1=CC2=C(CO1)C(=O)C(C)(O)C(OC(=O)c1c(C)cc(OC)cc1O)C2` (stereo not shown) | 14.13 | inhibitor, single point |
| `CN(C)c1ccc2c(c1)OC(N)=C(C#N)C2c1cccc(C(F)(F)F)c1` (stereo not shown) | 11.22 | inhibitor, partial curve |
| `Cc1c(NC(=O)c2cc3c(s2)CCCC3)cccc1-c1cn(C)c(=O)c(Nc2ccc(C3C(=O)N(C)CCN3C)cc2)n1` (stereo not shown) | 12.59 | inhibitor, partial curve |
| `CS(=O)(=O)c1ccc(C(=O)OCC(=O)N2CCN(C3CCCCC3)CC2)cc1[N+](=O)[O-]` | 39.81 | inhibitor, partial curve, poor fit |
| `CC[C@]1(O)C[C@@H]2CN(CCc3c([nH]c4ccccc34)[C@@](C(=O)OC)(c3cc4c(cc3OC)N(C)[C@H]3[C@@](O)(C(=O)OC)[C@H](OC(C)=O)[C@]5(CC)C=CCN6CC[C@]43[C@@H]65)C2)C1` | 28.18 | inhibitor, partial curve, poor fit |
| `Cc1cc2c(c(=O)[nH]1)OC(C(O)CC(C)C)O2` (stereo not shown) | 3.981 | inhibitor, partial curve |
| `CC(=O)Nc1sc2c(c1-c1nc3ccccc3s1)CNC2` | 15.85 | inhibitor, partial curve, poor fit |
| `Cn1sc(=O)n(Cc2ccccc2)c1=O` | 31.62 | inhibitor, partial curve, poor fit |
| `Cc1cc(NS(=O)(=O)c2cc3c(cc2N[C@@H](C)CO)NC(=O)CC3)ccc1F` | 8.912 | inhibitor, partial curve, poor fit |
| `CC(=O)c1ccc(N2CCN(S(=O)(=O)c3ccc4[nH]c(=O)[nH]c4c3)CC2)cc1` | 39.81 | inhibitor, single point |
| `CCN(Cc1cccs1)c1ncnc2ccc(-c3ccc4c(c3)OCO4)cc12` | 3.162 | inhibitor, full curve |
| `O=C(O)c1cc(I)ccc1NC(=O)[C@H](Cc1ccccc1)NCc1ccccc1` | 7.943 | inhibitor, partial curve, poor fit |
| `COc1cc2c(Oc3ccc(-c4cnc(Nc5ccc(F)cc5)n(C)c4=O)cc3F)ccnc2cc1OCCCN1CCOCC1` | 39.81 | inhibitor, single point |
| `Clc1ccc(Cn2c(Cc3ccccc3)nc3ccccc32)cc1` | 39.81 | inhibitor, partial curve, poor fit |
| `O=C(O)c1ccc(O)c2ncc(N3CCCN(CCc4ccncc4)CC3)cc12` | 7.943 | inhibitor, partial curve, poor fit |
| `COC(=O)[C@H](c1ccccc1Cl)N1CCC2SC(=O)C=C2C1` (stereo partly shown) | 39.81 | inhibitor, single point |
| `C#CC(=O)N(c1ccc(OC)cc1OC)C(C(=O)NCC(=O)OCC)c1cccs1` (stereo not shown) | 31.62 | inhibitor, single point |
| `CCN(Cc1cccs1)c1ncnc2ccc(-c3ccc4c(c3)OCO4)cc12` | 12.59 | inhibitor, partial curve, poor fit |
| `CC(=O)C1CCC2(C)C3=C(CCC12C)C1(C)CCC(=O)C(C)(C)C1CC3` (stereo not shown) | 10 | inhibitor, partial curve |

Some entries from above, unchanged:

Compound,Potency (µM),curve as filed
Cc1ccc(NS(=O)(=O)c2cc3c(cc2-c2ccccc2)NC(=O)CO3)cc1C,3.981,"inhibitor, full curve, poor fit"
COc1cc2c(Oc3ccc(-c4cnc(Nc5ccc(F)cc5)n(C)c4=O)cc3F)ccnc2cc1OCCCN1CCOCC1,39.81,"inhibitor, single point"